# Data taken from article PMC9912922, “The LH–DH module of bacterial replicative helicases is the common binding site for DciA and other helicase loaders” (Acta Crystallographica. Section D, Structural Biology, 2023).
# Chains of the proteins cited; added tags and fusions are not shown.
# UniProt P0ACB0: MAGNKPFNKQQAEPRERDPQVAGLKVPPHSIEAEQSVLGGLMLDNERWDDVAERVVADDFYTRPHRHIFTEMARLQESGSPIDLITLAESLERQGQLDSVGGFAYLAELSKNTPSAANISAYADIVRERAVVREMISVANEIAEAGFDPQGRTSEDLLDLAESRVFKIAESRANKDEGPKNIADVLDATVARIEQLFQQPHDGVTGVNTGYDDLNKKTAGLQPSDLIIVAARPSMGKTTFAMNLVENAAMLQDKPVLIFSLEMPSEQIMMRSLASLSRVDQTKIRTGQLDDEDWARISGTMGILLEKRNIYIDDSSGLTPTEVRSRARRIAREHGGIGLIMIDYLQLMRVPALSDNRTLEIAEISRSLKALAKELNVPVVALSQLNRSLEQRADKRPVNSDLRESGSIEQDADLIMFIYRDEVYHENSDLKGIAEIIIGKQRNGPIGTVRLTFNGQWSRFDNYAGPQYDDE
# Results are given in words; binding and its absence hold for the method and conditions named.
# B1: EcDnaC^(53-end), EcDnaC with its NTD deleted (domain or fragment, UniProt P0AEF0 53-245)
# chain: MQRTFNRSGIRPLHQNCSFENYRVECEGQMNALSKARQYVEEFDGNIASFIFSGKPGTGKNHLAAAICNELLLRGKSVLIITVADIMSAMKDTFRNSGTSEEQLLNDLSNVDLLVIDEIGVQTESKYEKVIINQIVDRRSSSKRPTGMLTNSNMEEMTKLLGERVMDRMRLGNSLWVIFNWDSYRSRVTGKEY
# Biological target: EcDnaB, replicative helicase DnaB from Escherichia coli (Escherichia coli) (UniProt P0ACB0)
# Experiment: intrinsic fluorescence variation along a thermal ramp (Tycho NT.6 nano-DSF); 20 µM of each protein in 50 mM HEPES pH 7.5, 150 mM NaCl, 1 mM ATP; 350/330 nm ratio, 35 to 95°C, compared with the ratio predicted in the absence of interaction; three to five replicates; both purified
binder,measurement,value
B1,binding,no binding (tested: 20 µM of each protein)
